Counter-ions that a name gives are not always drawn. Some of the results follow. Repeats are few or missing, and single values can be far off.
System: A2780
Assay: cell growth inhibition ratio vs untreated control (CCK8); higher = stronger inhibition of cell viability
Conditions: 10 µM; 48 h
Procedure: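 Natural product library (Topscience) screened at 10 µM final concentration for 48 h on ovarian cancer A2780 cells and patient-derived ovarian cancer cells (PDC) in 96-well plates; viability read by CCK8 and reported as inhibition ratio (%) relative to untreated control. Single-dose primary screen.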

Which “cell growth inhibition ratio” value does the source give for CCCCCC1C(=O)CCC1CC(=O)OC (stereo not given) [Methyl Dihydrojasmonate;Hedione] here?
Its value is 14.5%.

CC(=O)O[C@]1(C)CC[C@@]23C[C@H]1C(C)(C)[C@@H]2CC[C@H]3C [Cedryl acetate] was tested. Which “cell growth inhibition ratio” value did it give?
The value was 5.94%.

How did the “cell growth inhibition ratio” value turn out when COc1cc2c(cc1OC)[C@@H]1Cc3ccc(OC)c(OC)c3CN1CC2 [Tetrahydropalmatine hydrochloride] was run?
The value was 11.8%.

For Cc1[nH]ccc2c1[nH]c1cc(=O)ccc12 [Harmol], which “cell growth inhibition ratio” value is on record?
Its value is 55.7%.

For OCc1c[nH]c2ccccc12 [Indole-3-carbinol], which “cell growth inhibition ratio” value is on record?
Its value is 3.59%.

For C[C@@H]1O[C@@H](O[C@H]2[C@H](Oc3cc(O)c4c(=O)cc(-c5ccc(O)cc5)oc4c3)O[C@H](CO)[C@@H](O)[C@@H]2O)[C@H](O)[C@H](O)[C@H]1O [Rhoifolin], which “cell growth inhibition ratio” value is on record?
Its value is -4.75%.

Which “cell growth inhibition ratio” value does the source give for COc1cc(O)cc(O)c1C(=O)/C=C/c1ccccc1 [Cardamoni] here?
The value was 60.9%.

With CC1(C)O[C@H]2CC(=O)OC[C@]23[C@H]2CC[C@@]4(C)[C@H](c5ccoc5)OC(=O)[C@H]5O[C@]54[C@]2(C)C(=O)C[C@@H]13 [Limonin] as the compound, how does the “cell growth inhibition ratio” value read?
Its value is -1.69%.

Which “cell growth inhibition ratio” value does the source give for COc1ccc2c(c1OC)C(=O)O[C@@H]2[C@H]1c2c(cc3c(c2OC)OCO3)CCN1C [Noscapine hydrochloride] here?
The value was 5%.

For C[C@H]1[C@H](C)CC[C@]2(C(=O)O)CC[C@]3(C)C(=CC[C@@H]4[C@@]5(C)CCC(=O)C(C)(C)[C@@H]5CC[C@]43C)[C@H]12 [Ursonic Acid], which “cell growth inhibition ratio” value is on record?
The value was 44.3%.

With CC1(C)CC[C@]2(C(=O)O)CC[C@]3(C)[C@H](C(=O)C=C4[C@@]5(C)C=C(C#N)C(=O)C(C)(C)[C@@H]5CC[C@]43C)[C@@H]2C1 [CDDO(Bardoxolone)] as the compound, how does the “cell growth inhibition ratio” value read?
Its value is 92.4%.

Oc1cc(O)c2c(c1)O[C@H](c1ccc(O)c(O)c1)[C@@H](O)C2 [Cianidanol] was tested. Which “cell growth inhibition ratio” value did it give?
Its value is 8.03%.

Which “cell growth inhibition ratio” value does the source give for COc1ccc(-c2coc3cc(O)ccc3c2=O)cc1 [Formononetin] here?
Its value is 11.4%.

For CC1CCC(C(C)C)C(O)C1 (racemic) [DL-Menthol], which “cell growth inhibition ratio” value is on record?
The value was -0.02%.

Which “cell growth inhibition ratio” value does the source give for OC[C@@H](O)[C@H](O)[C@H](O)[C@@H](O)CO [Dulcitol] here?
Its value is 7.15%.

Which “cell growth inhibition ratio” value does the source give for O=C(O)c1cc(O)c(O)c(O)c1 [Gallic acid] here?
The value was -1.62%.

With O=c1c(-c2ccc(O[C@@H]3O[C@H](CO)[C@@H](O)[C@H](O)[C@H]3O)cc2)coc2cc(O)cc(O)c12 [Sophoricoside] as the compound, how does the “cell growth inhibition ratio” value read?
The value was 4.16%.

COc1cc2c(=O)c(-c3ccc(O)cc3)coc2cc1O[C@@H]1O[C@H](CO)[C@@H](O)[C@H](O)[C@H]1O [Glycitin] was tested. Which “cell growth inhibition ratio” value did it give?
The value was -3.59%.

Which “cell growth inhibition ratio” value does the source give for Cc1cc(O)c2c(c1)C(=O)c1cc(O)cc(O)c1C2=O [Emodin] here?
Its value is 23.7%.

With NC(=O)CC[C@H](N)C(=O)O [L-Glutamine] as the compound, how does the “cell growth inhibition ratio” value read?
The value was 3.86%.

CC(C)(O)[C@H]1CC[C@@](C)(C2[C@@H](O)C[C@@]3(C)[C@@H]4C[C@H](O)C5C(C)(C)[C@@H](O)CCC56CC46CC[C@]23C)O1 (stereo not given in full) [Cycloastragenol] was tested. Which “cell growth inhibition ratio” value did it give?
Its value is 1.21%.

How did the “cell growth inhibition ratio” value turn out when CC1(C)CCCC2(C)OC(=O)C=C12 (stereo not given) [Dihydroactinidiolide] was run?
Its value is 2.03%.

O=c1cc(-c2ccccc2)oc2ccc(O)cc12 [6-Hydroxyflavone] was tested. Which “cell growth inhibition ratio” value did it give?
Its value is -5.23%.

How did the “cell growth inhibition ratio” value turn out when OC[C@@H](O)[C@H](O)[C@@H](O)CO [Xylitol] was run?
The value was 8.88%.

CC(C)=C[C@H]1C[C@](C)(O)[C@@H]2[C@H]3CC[C@@H]4[C@@]5(C)CC[C@H](OC6OC[C@H](O)[C@H](O[C@@H]7O[C@H](CO[C@@H]8O[C@H](CO)[C@@H](O)[C@H](O)[C@H]8O)[C@@H](O)[C@H](O)[C@H]7O[C@@H]7OC[C@@H](O)[C@H](O)[C@H]7O)[C@H]6O[C@@H]6O[C@@H](C)[C@H](O)[C@@H](O)[C@H]6O)C(C)(C)[C@@H]5CC[C@@]4(C)C34CO[C@@]2(C4)O1 (stereo not given in full) [Jujuboside A] was tested. Which “cell growth inhibition ratio” value did it give?
The value was 2.72%.

How did the “cell growth inhibition ratio” value turn out when N[C@@H](Cc1ccc(O)c(O)c1)C(=O)O [Levodopa] was run?
Its value is 8.33%.

For Nc1nc(=O)c2nc(CNc3ccc(C(=O)N[C@@H](CCC(=O)O)C(=O)O)cc3)cnc2[nH]1 [Folic acid], which “cell growth inhibition ratio” value is on record?
The value was 6.32%.

Which “cell growth inhibition ratio” value does the source give for CC1(C)CC[C@]2(C(=O)O)CC[C@]3(C)C(=CC[C@@H]4[C@@]5(C)CC[C@H](O)C(C)(C)[C@@H]5CC[C@]43C)[C@@H]2C1 [Oleanolic Acid] here?
Its value is 26.5%.

How did the “cell growth inhibition ratio” value turn out when CNc1ncnc2c1ncn2[C@@H]1O[C@H](CO)[C@@H](O)[C@H]1O [N6-methyladenosine (m6A)] was run?
The value was 19.4%.

Which “cell growth inhibition ratio” value does the source give for C=CCc1ccc(O)c(-c2ccc(O)c(CC=C)c2)c1 [Honokiol] here?
Its value is -30.5%.

Which “cell growth inhibition ratio” value does the source give for COc1cc2ccc(=O)oc2cc1OC [Scoparone] here?
Its value is -1.5%.

With C[n+]1cc2c3c(ccc2c2ccc4cc5c(cc4c21)OCO5)OCO3 [Sanguinarine chloride] as the compound, how does the “cell growth inhibition ratio” value read?
The value was 90.9%.

How did the “cell growth inhibition ratio” value turn out when O=C(O)/C=C/c1ccc(O)c(O)c1 [Caffeic Acid] was run?
The value was -5.78%.

Which “cell growth inhibition ratio” value does the source give for COC(=O)C1=CO[C@@H](O[C@@H]2O[C@H](CO)[C@@H](O)[C@H](O)[C@H]2O)[C@@H]2[C@H](C)O[C@@H](O)C[C@H]12 [Morroniside] here?
The value was 13.8%.

With COc1ccc(CCO[C@@H]2O[C@H](CO[C@@H]3OC[C@H](O)[C@H](O)[C@H]3O)[C@@H](OC(=O)/C=C/c3ccc(O)c(OC)c3)[C@H](O[C@@H]3O[C@@H](C)[C@@H](O)[C@@H](O)[C@H]3O)[C@H]2O)cc1O [Angoroside C] as the compound, how does the “cell growth inhibition ratio” value read?
Its value is 3.58%.

For O=C1c2cccc3c2[C@H](CCC3)CN1[C@@H]1CN2CCC1CC2 [Palonosetron hydrochloride], which “cell growth inhibition ratio” value is on record?
The value was 8.03%.

Which “cell growth inhibition ratio” value does the source give for CC[C@H](C)[C@H](N)C1=N[C@H](C(=O)N[C@@H](CC(C)C)C(=O)N[C@H](CCC(=O)O)C(=O)N[C@H](C(=O)N[C@H]2CCCCNC(=O)[C@H](CC(N)=O)NC(=O)[C@@H](CC(=O)O)NC(=O)[C@H](Cc3cnc[nH]3)NC(=O)[C@@H](Cc3ccccc3)NC(=O)[C@H]([C@@H](C)CC)NC(=O)[C@@H](CCCN)NC2=O)[C@@H](C)CC)CS1 [Bacitracin] here?
Its value is 4.12%.

How did the “cell growth inhibition ratio” value turn out when O=C1CCC[C@@H]2[C@H]3CCC[N+]4([O-])CCC[C@@H](CN12)[C@@H]34 (stereo not given in full) [Oxymatrine] was run?
Its value is 0.486%.

COc1cc2ccc(=O)oc2cc1O [Scopoletin] was tested. Which “cell growth inhibition ratio” value did it give?
Its value is 8.38%.

For COc1ccc2c3c1O[C@H]1C[C@@H](O)C=C[C@@]31CCN(C)C2 [Galanthamine HBr], which “cell growth inhibition ratio” value is on record?
The value was 19.9%.
